Assay results as given in patent US20200317769A1.
These are yes or no findings as the source states them, for the method shown. Some results given as binding are weak or reduced against the parent protein; the word gives no strength.

Sequences of proteins named here, by UniProt entry; tags and fusion partners are left off. A change or cut given only in a name is not applied to a line headed by its entry.
UniProt P01375: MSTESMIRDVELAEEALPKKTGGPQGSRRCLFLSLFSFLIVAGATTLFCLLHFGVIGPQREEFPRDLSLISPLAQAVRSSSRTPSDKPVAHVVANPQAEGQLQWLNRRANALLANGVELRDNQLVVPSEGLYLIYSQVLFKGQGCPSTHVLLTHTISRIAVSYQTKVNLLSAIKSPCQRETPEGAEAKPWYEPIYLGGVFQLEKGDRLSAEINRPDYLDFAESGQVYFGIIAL

B1: Q62F10 (VHH, not shown: small tags and cut ends)
VHH: EVQLVESGGGLVQPGGSLRLSCVASGFDFNIHWMYWVRQAPGKELEWVAEINTNGLITVYPDSVKGRFTISRDNAKNTLFLQMNNLKFEDTAVYYCTNTQNGKTKGQGTQVTVSS
B2: Q65A3 (VHH, not shown: small tags and cut ends)
VHH: EVQLVESGGGLVQPGGSLRPSCTTSGLDFGIHWMYWFRQAPGKELEWVAEINTNALITKYADSVKGRFTISRDNAKNTLFLQMNDLKSEDTAVYYCSNTQNGAAKGQGVQVTVSS
B3: Q65E12 (VHH, not shown: small tags and cut ends)
VHH: EVQLVESGGGLVQPGGSLRLSCSASGFDFSIHWMYWVRQAPGKELEWVAEINTNGLITLYADSVKGRFTASRDNAKNALFLQMNDLKFEDTAVYYCAKSRNGAAGGQGTQVTVSS

molecular target: soluble human TNF-alpha (human) (UniProt P01375); test: competition ELISA, adalimumab coated, human TNF-alpha with VHH; competitor adalimumab

binding, binds:
B1
B2
B3
